Assay results reported in PubChem BioAssay AID248 (DTP/NCI, 2004).
The list shows only some results of the screen, not a fair sample: it gathers some chemical classes. Other doses and runs of a compound may be missing. T/C: endpoint of the treated group in % of that of the vehicle group. Some entries give survivors of the animals treated and no T/C: the source holds a T/C of zero for them, seemingly a mark for toxic or unscored doses. Some doses without a T/C left all or most animals alive at the check, yet need not have been tolerated: survival well below the control is almost never listed, so the zero probably covers shortened survival too. Survivors were counted at the toxicity check, usually on the fifth day, unless a day is given; later deaths do not show. Schedules are NCI's codes, read here as Q, the interval in days (D) or hours (H), X, the number of doses. For survival time, the PubChem record calls one and a half times the control and up active, and a quarter to a half above the control has no call in these data; cut-offs in other NCI protocols can differ. Some T/C values carry the count of animals alive at the toxicity check (mostly the fifth day); without a count or a note in brackets, all were alive then. Some entries hold several experiments; their values stand side by side, smallest first. Some entries show no survivor count and are marked so; the dose need not have been tolerated. Some schedules carry Z or #; the key to these is not given.

System: L1210 leukemia ip in BDF1 mice, survival T/C
Assay: NCI In Vivo Anticancer Drug Screen. Data for tumor model L1210 Leukemia (intraperitoneal) in B6D2F1 (BDF1) mice
Details: T/C endpoint: mean survival time, higher T/C = longer survival
[1] = dose: 100.0 mg/kg/injection, schedule: Q01DX009 (ip), vehicle: saline
[2] = dose: 100.0 mg/kg/injection, schedule: Q01DX001 (ip), vehicle: saline
[3] = dose: 200.0 mg/kg/injection, schedule: Q01DX001 (ip), vehicle: saline
[4] = dose: 400.0 mg/kg/injection, schedule: Q01DX001 (ip), vehicle: saline

## CC(=N\N=C(/N)N[N+](=O)[O-])/C(C)=N/N=C(\N)N[N+](=O)[O-]
dose: 62.5 mg/kg/injection, schedule: Q04DX003 (ip), vehicle: Klucel (hydroxypropylcellulose) (HPC)
  T/C: 92 % of control
dose: 125.0 mg/kg/injection, schedule: Q04DX003 (ip), vehicle: Klucel (hydroxypropylcellulose) (HPC)
  T/C: 86 % of control
dose: 250.0 mg/kg/injection, schedule: Q04DX003 (ip), vehicle: Klucel (hydroxypropylcellulose) (HPC)
  T/C: 91 % of control

## O=Nc1ccc(N(CCCl)CCCl)cc1
dose: 66.0 mg/kg/injection, schedule: Q01DX001 (sc), vehicle: olive oil, sesame oil, peanut oil
  T/C: 102 % of control
dose: 66.0 mg/kg/injection, schedule: Q01DX009 (ip), vehicle: saline
  T/C: 120 % of control
dose: 75.0 mg/kg/injection, schedule: Q01DX001 (ip), vehicle: saline
  T/C: 123 % of control
dose: 100.0 mg/kg/injection, schedule: Q01DX001 (sc), vehicle: olive oil, sesame oil, peanut oil
  T/C: 94 % of control [4 of 6 alive]
[1]
  T/C: 115 % of control
dose: 150.0 mg/kg/injection, schedule: Q01DX001 (ip), vehicle: saline
  T/C: 147 % of control
dose: 150.0 mg/kg/injection, schedule: Q01DX001 (sc), vehicle: olive oil, sesame oil, peanut oil
  survivor count: 0 of 6
dose: 150.0 mg/kg/injection, schedule: Q01DX009 (ip), vehicle: saline
  T/C: 100 % of control
dose: 225.0 mg/kg/injection, schedule: Q01DX001 (sc), vehicle: olive oil, sesame oil, peanut oil
  T/C: 87 % of control
dose: 225.0 mg/kg/injection, schedule: Q01DX009 (ip), vehicle: saline
  survivor count: 6 of 6
dose: 300.0 mg/kg/injection, schedule: Q01DX001 (ip), vehicle: saline
  T/C: 118 % of control

## O=CCCc1ccc(N(CCCl)CCCl)cc1
dose: 100.0 mg/kg/injection, schedule: Q04DX003 (ip), vehicle: Klucel (hydroxypropylcellulose) (HPC)
  T/C: 110 % of control
dose: 200.0 mg/kg/injection, schedule: Q04DX003 (ip), vehicle: Klucel (hydroxypropylcellulose) (HPC)
  T/C: 108 % of control
dose: 400.0 mg/kg/injection, schedule: Q04DX003 (ip), vehicle: Klucel (hydroxypropylcellulose) (HPC)
  T/C: 121 % of control

## C1CN1.NC(CC(=O)O)C(=O)O (configuration not stated)
dose: 50.0 mg/kg/injection, schedule: Q04DX002 (ip), vehicle: saline
  T/C: 113 % of control
dose: 100.0 mg/kg/injection, schedule: Q04DX002 (ip), vehicle: saline
  T/C: 105, 106, 124 % of control
dose: 200.0 mg/kg/injection, schedule: Q04DX002 (ip), vehicle: saline
  T/C: 115 [9 of 10 alive], 120, 130 % of control
dose: 400.0 mg/kg/injection, schedule: Q04DX002 (ip), vehicle: saline
  T/C: 95 [2 of 3 alive], 103 [7 of 10 alive], 109 % of control

## O=[N+]([O-])c1cc([N+](=O)[O-])c(C(F)(F)F)cc1Nc1cc(C(F)(F)F)c([N+](=O)[O-])cc1[N+](=O)[O-]
[2]
  T/C: 101 % of control
[3]
  survivor count: 0 of 4
[4]
  survivor count: 1 of 4

## COc1ccc(C=C(C#N)C#N)cc1
dose: 5.0 mg/kg/injection, schedule: Q01DX001 (ip), vehicle: saline
  T/C: 97 % of control
dose: 10.0 mg/kg/injection, schedule: Q01DX001 (ip), vehicle: saline
  T/C: 103 % of control
dose: 20.0 mg/kg/injection, schedule: Q01DX001 (ip), vehicle: saline
  T/C: 100 % of control
dose: 40.0 mg/kg/injection, schedule: Q01DX001 (ip), vehicle: saline
  T/C: 94 % of control
dose: 80.0 mg/kg/injection, schedule: Q01DX001 (ip), vehicle: saline
  survivor count: 2 of 4
[2]
  survivor count: 0 of 4
[3]
  survivor count: 0 of 4
[4]
  survivor count: 0 of 4

## CCN(CCNCCCNCCSP(=O)(O)O)c1cccc(C)c1
dose: 100.0 mg/kg/injection, schedule: Q04DX003 (ip), vehicle: saline with Tween-80
  T/C: 96 % of control
dose: 200.0 mg/kg/injection, schedule: Q04DX003 (ip), vehicle: saline with Tween-80
  survivor count: 0 of 6
dose: 400.0 mg/kg/injection, schedule: Q04DX003 (ip), vehicle: saline with Tween-80
  survivor count: 0 of 6

## ClCCN(CCCl)c1ccc(C2OCCO2)cc1.[C-]#[O+].[C-]#[O+].[C-]#[O+].[Cr]
dose: 100.0 mg/kg/injection, schedule: Q01DX009 (ip), vehicle: Klucel (hydroxypropylcellulose) (HPC)
  T/C: 97 % of control
dose: 200.0 mg/kg/injection, schedule: Q01DX009 (ip), vehicle: Klucel (hydroxypropylcellulose) (HPC)
  T/C: 87 % of control
dose: 400.0 mg/kg/injection, schedule: Q01DX009 (ip), vehicle: Klucel (hydroxypropylcellulose) (HPC)
  survivor count: 6 of 6

## CC1OOC1(C)C (configuration not stated)
dose: 50.0 mg/kg/injection, schedule: Q01DX001 (ip), vehicle: water
  T/C: 106 % of control
dose: 100.0 mg/kg/injection, schedule: Q01DX001 (ip), vehicle: water
  T/C: 98 % of control
dose: 200.0 mg/kg/injection, schedule: Q01DX001 (ip), vehicle: water
  T/C: 100 % of control

## CN(C)CCS
dose: 50.0 mg/kg/injection, schedule: Q01DX009 (ip), vehicle: saline
  T/C: 94 % of control [survivor count not shown]
[1]
  T/C: 107 % of control [survivor count not shown]
dose: 100.0 mg/kg/injection, schedule: Q04DX003 (ip), vehicle: saline
  T/C: 117 % of control [survivor count not shown]
dose: 200.0 mg/kg/injection, schedule: Q01DX009 (ip), vehicle: saline
  T/C: 102 % of control [survivor count not shown]
dose: 200.0 mg/kg/injection, schedule: Q04DX003 (ip), vehicle: saline
  T/C: 95 % of control [survivor count not shown]

## CCOP(=O)(CC)OCCCCOP(=O)(CC)OCC (configuration not stated)
dose: 4.0 mg/kg/injection, schedule: Q01DX Z (ip), vehicle: saline
  T/C: 96 % of control [survivor count not shown]
dose: 8.0 mg/kg/injection, schedule: Q01DX Z (ip), vehicle: saline
  T/C: 96 % of control [survivor count not shown]
dose: 16.0 mg/kg/injection, schedule: Q01DX Z (ip), vehicle: saline
  T/C: 88 % of control [survivor count not shown]

## O=[N+]([O-])c1cccc(-c2no[n+]([O-])c2-c2cccc([N+](=O)[O-])c2)c1
dose: 100.0 mg/kg/injection, schedule: Q01DX009 (ip), vehicle: saline with Tween-80
  T/C: 90 % of control
dose: 200.0 mg/kg/injection, schedule: Q01DX009 (ip), vehicle: saline with Tween-80
  T/C: 92 % of control
dose: 400.0 mg/kg/injection, schedule: Q01DX009 (ip), vehicle: saline with Tween-80
  survivor count: 6 of 6
